PMC5120300
These are yes or no findings as the source states them, for the method shown. In cells and extracts the contact can be indirect. Some entries that bind do so weakly or less than the wild type.

Chains of the proteins cited; added tags and fusions are not shown. Residues count along the entry.
UniProt Q01097, residues 27-1482: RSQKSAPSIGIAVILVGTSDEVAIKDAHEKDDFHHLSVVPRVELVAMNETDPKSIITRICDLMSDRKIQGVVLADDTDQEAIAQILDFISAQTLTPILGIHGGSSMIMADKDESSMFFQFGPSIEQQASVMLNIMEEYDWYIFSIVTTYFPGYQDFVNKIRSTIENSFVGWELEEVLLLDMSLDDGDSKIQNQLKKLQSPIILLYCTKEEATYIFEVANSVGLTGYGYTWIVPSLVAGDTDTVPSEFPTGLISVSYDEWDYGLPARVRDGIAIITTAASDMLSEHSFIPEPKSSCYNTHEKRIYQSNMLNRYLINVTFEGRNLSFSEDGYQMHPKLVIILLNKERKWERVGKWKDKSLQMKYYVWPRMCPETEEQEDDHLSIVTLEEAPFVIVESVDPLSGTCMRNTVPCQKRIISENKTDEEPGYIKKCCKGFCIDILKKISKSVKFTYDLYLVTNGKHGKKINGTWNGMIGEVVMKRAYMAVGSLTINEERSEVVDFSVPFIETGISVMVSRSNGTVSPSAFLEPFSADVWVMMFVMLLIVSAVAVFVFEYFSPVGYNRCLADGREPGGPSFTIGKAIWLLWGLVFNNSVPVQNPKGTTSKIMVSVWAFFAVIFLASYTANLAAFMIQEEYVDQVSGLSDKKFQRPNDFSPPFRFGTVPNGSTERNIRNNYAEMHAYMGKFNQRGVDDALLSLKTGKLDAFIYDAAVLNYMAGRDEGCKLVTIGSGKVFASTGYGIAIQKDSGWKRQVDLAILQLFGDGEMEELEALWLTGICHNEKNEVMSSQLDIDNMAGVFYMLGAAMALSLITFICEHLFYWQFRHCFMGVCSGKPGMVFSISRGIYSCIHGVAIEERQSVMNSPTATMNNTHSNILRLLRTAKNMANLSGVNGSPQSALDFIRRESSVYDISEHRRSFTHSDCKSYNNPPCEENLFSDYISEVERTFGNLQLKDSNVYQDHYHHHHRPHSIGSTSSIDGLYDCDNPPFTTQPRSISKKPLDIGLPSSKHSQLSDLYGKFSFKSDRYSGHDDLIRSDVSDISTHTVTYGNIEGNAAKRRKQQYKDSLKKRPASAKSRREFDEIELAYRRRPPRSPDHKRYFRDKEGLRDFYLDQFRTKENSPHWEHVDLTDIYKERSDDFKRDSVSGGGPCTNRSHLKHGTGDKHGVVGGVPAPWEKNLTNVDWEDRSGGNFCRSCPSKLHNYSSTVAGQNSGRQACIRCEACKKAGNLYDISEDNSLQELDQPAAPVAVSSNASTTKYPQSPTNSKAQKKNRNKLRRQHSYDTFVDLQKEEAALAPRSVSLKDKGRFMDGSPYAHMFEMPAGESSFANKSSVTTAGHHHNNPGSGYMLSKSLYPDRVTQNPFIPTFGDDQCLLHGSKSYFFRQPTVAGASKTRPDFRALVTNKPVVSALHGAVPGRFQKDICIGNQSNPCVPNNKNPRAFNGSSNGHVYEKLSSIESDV
UniProt P12813: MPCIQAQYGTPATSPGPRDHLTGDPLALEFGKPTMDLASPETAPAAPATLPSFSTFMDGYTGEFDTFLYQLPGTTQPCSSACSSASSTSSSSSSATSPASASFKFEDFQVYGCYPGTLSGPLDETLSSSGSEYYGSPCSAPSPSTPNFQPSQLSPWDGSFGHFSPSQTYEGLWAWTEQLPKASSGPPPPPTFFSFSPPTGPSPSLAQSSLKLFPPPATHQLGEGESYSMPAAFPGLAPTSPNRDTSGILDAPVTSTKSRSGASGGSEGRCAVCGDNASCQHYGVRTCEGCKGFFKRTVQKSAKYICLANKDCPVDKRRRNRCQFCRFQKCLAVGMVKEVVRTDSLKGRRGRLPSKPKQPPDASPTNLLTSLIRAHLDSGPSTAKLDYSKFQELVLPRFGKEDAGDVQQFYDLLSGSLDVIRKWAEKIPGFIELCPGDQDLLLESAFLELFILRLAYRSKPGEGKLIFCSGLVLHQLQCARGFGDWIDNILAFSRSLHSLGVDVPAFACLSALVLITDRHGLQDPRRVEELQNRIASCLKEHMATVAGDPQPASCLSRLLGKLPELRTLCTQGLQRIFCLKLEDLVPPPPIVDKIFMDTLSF

Experiments:
[1] = biological target: NR2B (mouse (endogenous in hippocampal tissue)) (UniProt Q01097); assay: co-IP; protein extracts of mouse hippocampal tissues in IP lysis buffer; anti-NR4A1 or anti-NR2B antibody (rabbit IgG as control) overnight at 4 °C, protein A/G agarose beads 2 h at 4 °C, five washes, Western blot
[2] = biological target: Nuclear receptor subfamily 4 group A member 1 (mouse (endogenous in hippocampal tissue)) (UniProt P12813); assay: as above

Substance	binding [1]	binding [2]
Nuclear receptor subfamily 4 group A member 1 (from UniProt P12813 1-601)	binds	
NR2B (from UniProt Q01097 27-1482)		binds
